In the RepoRT retention time repository (doi:10.1016/j.jchromb.2020.122105):

Columns and labels:
[1] = HILIC, Waters XBridge BEH Amide, 100 × 2.1 mm, 2.5 µm, 0.5 mL/min, estimated dead time 0.44 min; A: water + 0.1% acetic acid + 10 mM ammonium acetate, pH 4; B: 5% water + 95% acetonitrile + 0.1% acetic acid + 10 mM ammonium acetate, pH 4; gradient (min/%B) 0/95 5/95 20/57 25/57 30/95 40/95; settings: stereoisomer not certain
[2] = HILIC, Thermo Scientific Accucore HILIC, 100 × 2.1 mm, 2.6 µm, 0.5 mL/min, estimated dead time 0.44 min; A: water + 0.1% formic acid + 10 mM ammonium formate, pH 3; B: 5% water + 95% acetonitrile + 0.1% formic acid + 10 mM ammonium formate, pH 3; gradient (min/%B) 0/95 5/95 20/57 25/57 30/95 40/95; settings: stereoisomer not certain

Row | Compound | LC retention time [1] [min] | LC retention time [2] [min]
1 | O=C(O)C1=CC(O)C(O)C(O)C1 (stereo not drawn) [SHIKIMATE] | 12.6 | 
2 | O=C(O)C1=CC(=O)C(O)C(O)C1 (stereo not drawn) [3-DEHYDROSHIKIMATE] | 11.4 | 11.5
